In PubChem BioAssay AID1347076 (National Center for Advancing Translational Sciences (NCATS), 2019):
Hit rate of the full screen: of about 400,000 compounds, about 13,000 (3.2%) were called active. The shares of active, inactive and inconclusive entries below differ from those in the screen. Calls follow the shape of the dose curve; as a rule, active = well fitted cell-killing curve with a large enough effect; inconclusive = small, poorly fitted or top-dose-only effect, or effect the other way; inactive = flat fitted curve, though single readings scatter. Where the call is inconclusive, the potency comes from a doubtful curve fit.
% is scaled to controls: 0 for no effect and ±100 for the full control effect; potency is read from the fitted curve at half-maximal effect.

Experiment: qHTS assay for MDR1-selective chemotherapeutics: Primary screen using the drug-selected MDR subline cells KB-V1; also: nearly all actives have a fitted effect of over 60% in size
Conditions: KB-V1 MDR cells viability, CellTiter-Glo, 72 h; activity change, negative = cytotoxicity: at 46.1 µM (top of the series)
Outline: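 qHTS viability screen in drug-selected KB-V1 MDR cells: 72 h compound treatment at 37 degrees C, ATP luminescence end point.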
For CC1(C(=O)NCc2ccccn2)C=CCN1C(=O)c1ccccc1 (configuration not stated), the “activity change, negative = cytotoxicity” value was inactive: 9.86%.
With COc1ccc(Cc2noc(CN(C)Cc3cccc(-n4cccn4)c3)n2)cc1OC the Potency was inconclusive: 16.4 µM [cytotoxic, single point].
With NC(=O)C1CCN(C(=O)/C(=C/c2ccccc2)NC(=O)c2ccccc2)CC1 the Potency was inconclusive: 29.1 µM [rising, single point].
With Cc1noc(C)c1C(=O)Nc1sc2c(c1C(N)=O)CCC2 the “activity change, negative = cytotoxicity” value was inactive: 0%.
In the case of Clc1ccc(CN2CCc3nc(N4CCN(c5ccccn5)CC4)ncc3C2)cc1, the “activity change, negative = cytotoxicity” value is reported as inactive: -8.96%.
For CN(NS(=O)(=O)c1cccs1)c1ncc(C(F)(F)F)cc1Cl, the Potency was inconclusive: 29.1 µM [rising, partial curve, poor fit].
With Cc1ccc(C(=O)c2nccn2C)cc1C the “activity change, negative = cytotoxicity” value was inactive: 9.38%.
With CC1CC(NC(=O)c2c(O)nc3ccccn3c2=O)CC(C)(C)C1 (configuration not stated) the Potency was active: 20.6 µM.
For O=C(CN1C(=O)C2(SCC(=O)N2c2cccc(F)c2)c2ccccc21)NCc1ccccc1Cl (configuration not stated), the Potency was active: 6.51 µM.
For Cc1nnsc1C(=O)Oc1ccc(C#N)cc1, the “activity change, negative = cytotoxicity” value was inactive: 23.6%.
In the case of O=C(NC1CCC(CC2CCC(NC(=O)C(Cl)Cl)CC2)CC1)C(Cl)Cl (configuration not stated), the “activity change, negative = cytotoxicity” value is reported as inactive: 2.12%.
With Cc1c(C(=O)Nc2nc3ccccc3[nH]2)oc2ccc(Br)cc12 the Potency was inconclusive: 23.1 µM [cytotoxic, partial curve].
In the case of CC(C)C[C@H]1CN([C@@H](CC(C)C)CN2CCC[C@@H]2CN2C(=S)NC[C@@H]2Cc2ccc(O)cc2)C(=S)N1CCc1ccccc1, the Potency is reported as inconclusive: 29.1 µM [cytotoxic, single point].
For O=C(CNC(=O)c1ccccc1C(F)(F)F)N/N=C/c1cccs1, the Potency was inconclusive: 32.6 µM [rising, single point].
In the case of Cc1nn(-c2ccccc2)nc1C(=O)c1c(C)[nH]n(-c2ccccc2)c1=O, the Potency is reported as active: 20.6 µM.
With CCN(CC(=O)NCc1ccc(F)cc1)C(=O)c1oc2ccccc2c1C the Potency was inconclusive: 8.2 µM [cytotoxic, partial curve].
In the case of COc1ccc(OC)c(-c2nnc3n2N=C(c2ccc(OC)c(OC)c2)CS3)c1, the Potency is reported as inconclusive: 2.59 µM [cytotoxic, full curve].
For COc1ccc(-c2nc(CSCC(=O)NC3CCCc4ccccc43)c(C)o2)cc1OC (configuration not stated), the Potency was inconclusive: 8.2 µM [cytotoxic, partial curve, poor fit].
With CCc1nc2ccccc2n1CCCCOc1cccc(C)c1 the Potency was inconclusive: 16.4 µM [cytotoxic, partial curve].
With NC(=O)c1cc2n(n1)C(C(F)(F)F)CC(c1ccco1)N2 (configuration not stated) the Potency was inconclusive: 23.1 µM [cytotoxic, single point].
With COc1cc(C(C)=O)ccc1OCC(O)CN1CCN(c2ccc(C)c(C)c2)CC1 (configuration not stated) the Potency was inconclusive: 18.4 µM [cytotoxic, single point].
For CCOc1ccc(C(C)NC(=O)Cc2ccccc2)cc1OCC (configuration not stated), the “activity change, negative = cytotoxicity” value was inactive: 20.5%.
With Cc1cc(Oc2ccccc2)nc(SCC(=O)Nc2ccccc2)n1 the Potency was inconclusive: 16.4 µM [cytotoxic, single point].
For Cc1ccc(C)c(S(=O)(=O)N2CCN(C(=O)C(C)Sc3ccccc3)CC2)c1 (configuration not stated), the “activity change, negative = cytotoxicity” value was inactive: 0%.
In the case of CCOC(=O)c1sc(NC(=O)CNC(=O)Cn2cnc3sc(C)c(C)c3c2=O)nc1C, the Potency is reported as inconclusive: 10.3 µM [rising, single point].
With O=C(CCc1ccccc1)Nc1ccncc1 the Potency was inconclusive: 32.6 µM [cytotoxic, single point].
With CC(CCn1cccn1)NC(=O)c1cc(COc2ccc(F)cc2Cl)on1 (configuration not stated) the activity change, negative = cytotoxicity was inconclusive: -14.1%.
With CC(C(=O)O)n1c(C(F)(F)F)nc2ccccc21 (configuration not stated) the Potency was inconclusive: 10.3 µM [rising, partial curve].
In the case of Cc1ccc(Nc2nc(CSc3nnc(-c4ccccc4C)n3C)cs2)cc1, the Potency is reported as active: 6.51 µM.
In the case of O=C(COC(=O)Cc1c(Cl)cccc1Cl)NCc1ccccc1, the “activity change, negative = cytotoxicity” value is reported as inactive: 6.69%.
For Cc1ccc(-c2nnc(Nc3ccc4c(c3)OCO4)c3ccccc23)cc1S(=O)(=O)NCCO, the Potency was inconclusive: 11.6 µM [rising, single point].
With CCC(C)C(NC(N)=O)C(=O)Nc1ccc(C(=O)OC)cc1 (configuration not stated) the Potency was inconclusive: 6.51 µM [rising, partial curve].
For O=C(CNS(=O)(=O)c1ccccc1)OCc1cccc([N+](=O)[O-])c1, the Potency was inconclusive: 23.1 µM [rising, partial curve, poor fit].
In the case of COc1ccc(N2C[C@H](CSC)[C@@H](CC(=O)Nc3ccc(Br)cc3)C2=O)cc1, the Potency is reported as active: 8.2 µM.
In the case of CSc1ccc(CN(C)C(=O)c2cccc(S(=O)(=O)N3CCN(Cc4ccccc4)CC3)c2)cc1, the Potency is reported as inconclusive: 20.6 µM [cytotoxic, partial curve, poor fit].
With Cc1ccc(NC(=O)c2ccco2)cc1C the “activity change, negative = cytotoxicity” value was inactive: -25.8%.
With Cc1ccc(Cl)cc1NC(=O)c1nnn(Cc2ccccc2)c1N the “activity change, negative = cytotoxicity” value was inactive: 3.02%.
In the case of C=CCN1C=CC(=O)CC1, the Potency is reported as inconclusive: 13 µM [rising, partial curve].
In the case of CC(Oc1ccccc1)C(=O)N1CCN=C1SCc1ccc(F)cc1 (configuration not stated), the Potency is reported as inconclusive: 23.1 µM [cytotoxic, partial curve, poor fit].
With CN(C)NC1=CC(=[N+]2CCCC2)CC(C)(C)C1 the “activity change, negative = cytotoxicity” value was inactive: -5.47%.
For CSc1ccccc1OCc1cc(C(=O)N2CCC[C@H]2C(N)=O)no1, the Potency was inconclusive: 29.1 µM [rising, single point].
In the case of NC(=O)COc1ccc2oc(-c3ccccc3)cc(=O)c2c1, the Potency is reported as inconclusive: 29.1 µM [cytotoxic, single point].
For CC(=O)Nc1ccc(SCC(=O)Nc2ccccc2Oc2ccccc2)cc1, the Potency was active: 4.61 µM.
With CCN(CC)CCNC(=O)c1ccc(-c2nc(CN3CCc4ccccc43)c(C)o2)cc1 the Potency was inconclusive: 9.2 µM [cytotoxic, partial curve].
With COc1cc2ccccc2cc1C(=O)Nc1ccc(N2CCOCC2)cc1 the Potency was inconclusive: 13 µM [cytotoxic, partial curve, poor fit].
In the case of COc1ccc(CCNC(=O)COC(=O)c2cc(Cl)nc(Cl)c2)cc1, the “activity change, negative = cytotoxicity” value is reported as inactive: 0%.
With COc1ccc(C(=O)Oc2cc(C(=S)N3CCOCC3)ccc2OC)cc1 the “activity change, negative = cytotoxicity” value was inactive: 15.7%.
